PubChem BioAssay AID1508597, Cure First – 2020

Aim: 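Genes whose silencing sensitises or protects ovarian cancer cells against rucaparib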 (primary screen)
System: human ovarian carcinoma lines grown from tumours: OCI-P5x (papillary serous) and OCI-C5x (clear cell)
Reagents: siRNA pool against human genes, 1.25 pmol siRNA per well
Time to read-out: 72 h or 96 h, depending on the cell culture
Challenge: rucaparib 20 µM (about IC30) or vehicle, present until read-out
Read-out: 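Luminescent ATP-based viability assay read 72 or 96 h after transfection, depending on culture, given as normalised percent viability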
Scale: viability, normalised: higher = more viable cells remaining
Active means: 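a well counts as a hit if its normalised viability is under 80 percent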
Calls: active = viability under 80%; inactive = viability 80% or more
Shown is an unselected part of about 2,100 reagents tested. 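Calls flag viability under 80% in either arm, not effects specific to rucaparib; the reference for percent is not stated.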 A reagent listed more than once was tested more than once; the source does not tell the runs apart. Not stated in the record: the 100% reference.

RAD54L2, rucaparib or vehicle Rucaparib, cell line OCI-C5x (clear cell), technical replicate 1 showed viability, normalised (%) = 48.4; active.
RAD54L2, rucaparib or vehicle Rucaparib, cell line OCI-C5x (clear cell), technical replicate 2 showed viability, normalised (%) = 52.1; active.
RAD54L2, rucaparib or vehicle Rucaparib, cell line OCI-C5x (clear cell), technical replicate 3 gave viability, normalised (%) = 53.2; active.
RAD54L2, rucaparib or vehicle Rucaparib, cell line OCI-P5x (serous), technical replicate 1 showed viability, normalised (%) = 36.9; active.
RAD54L2, rucaparib or vehicle Rucaparib, cell line OCI-P5x (serous), technical replicate 2 gave viability, normalised (%) = 41.5; active.
With RAD54L2, rucaparib or vehicle Rucaparib, cell line OCI-P5x (serous), technical replicate 3, the entry reads viability, normalised (%) = 52.2; active.
RAD54L2, rucaparib or vehicle Vehicle, cell line OCI-C5x (clear cell), technical replicate 1 scored viability, normalised (%) = 38.4; active.
For RAD54L2, rucaparib or vehicle Vehicle, cell line OCI-C5x (clear cell), technical replicate 2, the entry reads viability, normalised (%) = 43.3; active.
RAD54L2, rucaparib or vehicle Vehicle, cell line OCI-C5x (clear cell), technical replicate 3 showed viability, normalised (%) = 61.2; active.
RAD54L2, rucaparib or vehicle Vehicle, cell line OCI-P5x (serous), technical replicate 1 scored viability, normalised (%) = 27.3; active.
With RAD54L2, rucaparib or vehicle Vehicle, cell line OCI-P5x (serous), technical replicate 2, the entry reads viability, normalised (%) = 51.3; active.
For RAD54L2, rucaparib or vehicle Vehicle, cell line OCI-P5x (serous), technical replicate 3, the entry reads viability, normalised (%) = 59; active.
STK17B, rucaparib or vehicle Rucaparib, cell line OCI-C5x (clear cell), technical replicate 1 gave viability, normalised (%) = 97.2; inactive.
STK17B, rucaparib or vehicle Rucaparib, cell line OCI-C5x (clear cell), technical replicate 2 gave viability, normalised (%) = 80.1; inactive.
For STK17B, rucaparib or vehicle Rucaparib, cell line OCI-C5x (clear cell), technical replicate 3, the entry reads viability, normalised (%) = 92; inactive.
With STK17B, rucaparib or vehicle Rucaparib, cell line OCI-P5x (serous), technical replicate 1, the values are viability, normalised (%) = 161; inactive.
For STK17B, rucaparib or vehicle Rucaparib, cell line OCI-P5x (serous), technical replicate 2, the entry reads viability, normalised (%) = 107; inactive.
With STK17B, rucaparib or vehicle Rucaparib, cell line OCI-P5x (serous), technical replicate 3, the entry reads viability, normalised (%) = 129; inactive.
With STK17B, rucaparib or vehicle Vehicle, cell line OCI-C5x (clear cell), technical replicate 1 the deposit lists viability, normalised (%) = 93.2; inactive.
For STK17B, rucaparib or vehicle Vehicle, cell line OCI-C5x (clear cell), technical replicate 2, the entry reads viability, normalised (%) = 109; inactive.
STK17B, rucaparib or vehicle Vehicle, cell line OCI-C5x (clear cell), technical replicate 3 showed viability, normalised (%) = 93; inactive.
STK17B, rucaparib or vehicle Vehicle, cell line OCI-P5x (serous), technical replicate 1 gave viability, normalised (%) = 125; inactive.
With STK17B, rucaparib or vehicle Vehicle, cell line OCI-P5x (serous), technical replicate 2 the deposit lists viability, normalised (%) = 118; inactive.
With STK17B, rucaparib or vehicle Vehicle, cell line OCI-P5x (serous), technical replicate 3 the deposit lists viability, normalised (%) = 130; inactive.
KALRN, rucaparib or vehicle Rucaparib, cell line OCI-C5x (clear cell), technical replicate 1 gave viability, normalised (%) = 47.1; active.
KALRN, rucaparib or vehicle Rucaparib, cell line OCI-C5x (clear cell), technical replicate 2 scored viability, normalised (%) = 65.1; active.
With KALRN, rucaparib or vehicle Rucaparib, cell line OCI-C5x (clear cell), technical replicate 3, the entry reads viability, normalised (%) = 58; active.
For KALRN, rucaparib or vehicle Rucaparib, cell line OCI-P5x (serous), technical replicate 1 the deposit lists viability, normalised (%) = 133; inactive.
KALRN, rucaparib or vehicle Rucaparib, cell line OCI-P5x (serous), technical replicate 2 gave viability, normalised (%) = 121; inactive.
With KALRN, rucaparib or vehicle Rucaparib, cell line OCI-P5x (serous), technical replicate 3, the values are viability, normalised (%) = 124; inactive.
For KALRN, rucaparib or vehicle Vehicle, cell line OCI-C5x (clear cell), technical replicate 1 the deposit lists viability, normalised (%) = 82.3; inactive.
With KALRN, rucaparib or vehicle Vehicle, cell line OCI-C5x (clear cell), technical replicate 2, the values are viability, normalised (%) = 62.5; active.
KALRN, rucaparib or vehicle Vehicle, cell line OCI-C5x (clear cell), technical replicate 3 scored viability, normalised (%) = 55.2; active.
KALRN, rucaparib or vehicle Vehicle, cell line OCI-P5x (serous), technical replicate 1 showed viability, normalised (%) = 110; inactive.
KALRN, rucaparib or vehicle Vehicle, cell line OCI-P5x (serous), technical replicate 2 scored viability, normalised (%) = 103; inactive.
With KALRN, rucaparib or vehicle Vehicle, cell line OCI-P5x (serous), technical replicate 3, the values are viability, normalised (%) = 108; inactive.
With TERF2, rucaparib or vehicle Rucaparib, cell line OCI-C5x (clear cell), technical replicate 1, the values are viability, normalised (%) = 95; inactive.
For TERF2, rucaparib or vehicle Rucaparib, cell line OCI-C5x (clear cell), technical replicate 1, the values are viability, normalised (%) = 51.6; active.
With TERF2, rucaparib or vehicle Rucaparib, cell line OCI-C5x (clear cell), technical replicate 2, the entry reads viability, normalised (%) = 55.2; active.
TERF2, rucaparib or vehicle Rucaparib, cell line OCI-C5x (clear cell), technical replicate 2 gave viability, normalised (%) = 83.2; inactive.
For TERF2, rucaparib or vehicle Rucaparib, cell line OCI-C5x (clear cell), technical replicate 3, the values are viability, normalised (%) = 53.8; active.
With TERF2, rucaparib or vehicle Rucaparib, cell line OCI-C5x (clear cell), technical replicate 3 the deposit lists viability, normalised (%) = 64.5; active.
TERF2, rucaparib or vehicle Rucaparib, cell line OCI-P5x (serous), technical replicate 1 gave viability, normalised (%) = 84.6; inactive.
TERF2, rucaparib or vehicle Rucaparib, cell line OCI-P5x (serous), technical replicate 1 showed viability, normalised (%) = 58.5; active.
For TERF2, rucaparib or vehicle Rucaparib, cell line OCI-P5x (serous), technical replicate 2, the entry reads viability, normalised (%) = 77.9; active.
For TERF2, rucaparib or vehicle Rucaparib, cell line OCI-P5x (serous), technical replicate 2 the deposit lists viability, normalised (%) = 76.5; active.
TERF2, rucaparib or vehicle Rucaparib, cell line OCI-P5x (serous), technical replicate 3 scored viability, normalised (%) = 71.6; active.
For TERF2, rucaparib or vehicle Rucaparib, cell line OCI-P5x (serous), technical replicate 3, the values are viability, normalised (%) = 70.6; active.
With TERF2, rucaparib or vehicle Vehicle, cell line OCI-C5x (clear cell), technical replicate 1 the deposit lists viability, normalised (%) = 64.9; active.
TERF2, rucaparib or vehicle Vehicle, cell line OCI-C5x (clear cell), technical replicate 1 scored viability, normalised (%) = 60.6; active.
TERF2, rucaparib or vehicle Vehicle, cell line OCI-C5x (clear cell), technical replicate 2 gave viability, normalised (%) = 46; active.
TERF2, rucaparib or vehicle Vehicle, cell line OCI-C5x (clear cell), technical replicate 2 scored viability, normalised (%) = 81.4; inactive.
TERF2, rucaparib or vehicle Vehicle, cell line OCI-C5x (clear cell), technical replicate 3 gave viability, normalised (%) = 45; active.
With TERF2, rucaparib or vehicle Vehicle, cell line OCI-C5x (clear cell), technical replicate 3, the entry reads viability, normalised (%) = 42.7; active.
With TERF2, rucaparib or vehicle Vehicle, cell line OCI-P5x (serous), technical replicate 1, the values are viability, normalised (%) = 66.6; active.
With TERF2, rucaparib or vehicle Vehicle, cell line OCI-P5x (serous), technical replicate 1, the entry reads viability, normalised (%) = 69.6; active.
TERF2, rucaparib or vehicle Vehicle, cell line OCI-P5x (serous), technical replicate 2 showed viability, normalised (%) = 61.6; active.
TERF2, rucaparib or vehicle Vehicle, cell line OCI-P5x (serous), technical replicate 2 showed viability, normalised (%) = 74.2; active.
With TERF2, rucaparib or vehicle Vehicle, cell line OCI-P5x (serous), technical replicate 3 the deposit lists viability, normalised (%) = 73.7; active.
TERF2, rucaparib or vehicle Vehicle, cell line OCI-P5x (serous), technical replicate 3 showed viability, normalised (%) = 80.2; inactive.
